Measured values reported in PubChem BioAssay AID493014 (National Center for Advancing Translational Sciences (NCATS), 2011).
The list shows a part of the results. Further columns of the screen follow, without active or inactive calls. Most of these compounds were active or inconclusive in the main read-out, so they are no random draw. Words in brackets tell the shape of the fitted curve; partial curves, single points and poor fits give uncertain potencies.

Test: qHTS Assay to Find Inhibitors of Chronic Active B-Cell Receptor Signaling
Settings: ABC-DLBCL IkBa-CBG/CBR reporter, luminescence ratio (green luciferase fused to IkBa over red control in TMD8 lymphoma cells), 4 h
Method in brief: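 Cell line TMD8 (human ABC DLBCL), stably expressing tet-inducible CBG68-IkBa fusion and CBR; IMDM/0.5% FBS; cpd up to 46 uM; dox induction, 4 h, 37C/5% CO2; dual luminescence; green/red ratio; MG132 control.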

[1] = measured here: CBR red luminescence, cell number
[2] = measured here: IkBa-CBG green luminescence

Row | SMILES | AC50 [1] | AC50 [2]
1 | O=C1c2ccccc2C(Nc2cccnc2)N1Cc1ccccc1Cl (stereo not drawn) | 32.6 µM [falling, single point] | 
2 | O=C(O)Cn1nc(-c2ccccc2)oc1=O | 29.1 µM [falling, partial curve, poor fit] | 
3 | CCCC(C)NC(=O)c1ccc2[nH]c3c(c2c1)CC(C)CC3 (stereo not drawn) | 12.6 µM [falling, partial curve, poor fit] | 
4 | CC1(C)C(=O)Nc2ccccc2N1C(=O)COC(=O)CSc1ccc(F)cc1 | 29.1 µM [falling, single point] | 
5 | COc1cc(/C=C2\SC(=O)NC2=O)ccc1OCC(=O)N1CCOCC1 | 2.59 µM [rising, full curve, poor fit] | 
6 | COc1ccc(C(=O)c2sc(Nc3ccc(NC(C)=O)cc3)nc2C)cc1 | 25.1 µM [falling, single point] | 
7 | CCOC(=O)C1CCN(S(=O)(=O)c2ccc3c(c2)CC(=O)N3C)CC1 | 35.5 µM [falling, single point] | 
8 | CSc1cccc(NC(=O)/C=C/c2ccco2)c1 | 10 µM [falling, partial curve, poor fit] | 
9 | Cc1ccc(Nc2nc(-c3ccc(S(=O)(=O)N4CCCC4)cc3)cs2)cc1C | 7.94 µM [falling, partial curve, poor fit] | 
10 | CCOC(=O)C#CC(CCc1ccccc1)OS(N)(=O)=O (stereo not drawn) | 22.4 µM [falling, single point] | 
11 | COC(=O)CSCC(=O)Nc1nnc(-c2cccc(C)c2)s1 | 8.91 µM [falling, partial curve] | 
12 | CCN(CC)C(=O)c1sc(NC(=O)c2cccs2)c(C#N)c1C | 3.55 µM [falling, partial curve, poor fit] | 
13 | Cc1cccc(CSC2=CS(=O)(=O)c3ccccc3N2)c1 | 0.126 µM [falling, full curve, poor fit] | 
14 | COc1ccc(Nc2nc(N3CCN(S(=O)(=O)N(C)C)CC3)nc3ccccc23)cc1 | 1.12 µM [rising, partial curve, poor fit] | 
15 | CC(O)CNCc1cccc2ccccc12 (stereo not drawn) | 0.00461 µM [rising, full curve, poor fit] | 
16 | O=[N+]([O-])c1cc(C(F)(F)F)ccc1-n1nnc2ccccc21 | 4.11 µM [rising, full curve, poor fit] | 
17 | O=C(NCc1ccco1)c1cccn2c(=O)c3c4c(sc3nc12)CCCC4 | 15.8 µM [falling, partial curve, poor fit] | 
18 | O=C(O)CC/C(=N/Nc1ccc([N+](=O)[O-])cc1)C(=O)O | 11.2 µM [rising, partial curve, poor fit] | 
19 | COc1ccc(N2C3=C(CC4=C2CC(C)(C)CC4=O)C(=O)CC(C)(C)C3)cc1 |  | 35.5 µM [rising, partial curve, poor fit]
20 | COc1ccc(C(c2nnnn2C2CCCCC2)N2CCN(C)CC2)c(OC)c1 (stereo not drawn) | 35.5 µM [falling, single point] | 
21 | CC(c1ccccc1)N(CCC(c1ccccc1)C1CCOC(C)(C)C1)C(=O)c1ccco1 (stereo not drawn) | 13 µM [falling, partial curve] | 

Filtered by structure, the entries above containing a furan ring, fused or not (3)
Row | SMILES | AC50 [1] | AC50 [2]
8 | CSc1cccc(NC(=O)/C=C/c2ccco2)c1 | 10 µM [falling, partial curve, poor fit] | 
17 | O=C(NCc1ccco1)c1cccn2c(=O)c3c4c(sc3nc12)CCCC4 | 15.8 µM [falling, partial curve, poor fit] | 
21 | CC(c1ccccc1)N(CCC(c1ccccc1)C1CCOC(C)(C)C1)C(=O)c1ccco1 (stereo not drawn) | 13 µM [falling, partial curve] | 

Quoted from the listing (2 entries):
Row | SMILES | AC50 [1] | AC50 [2]
20 | COc1ccc(C(c2nnnn2C2CCCCC2)N2CCN(C)CC2)c(OC)c1 (stereo not drawn) | 35.5 µM [falling, single point] | 
21 | CC(c1ccccc1)N(CCC(c1ccccc1)C1CCOC(C)(C)C1)C(=O)c1ccco1 (stereo not drawn) | 13 µM [falling, partial curve] | 

Next part:

Row | SMILES | AC50 [1] | AC50 [2]
22 | N#Cc1c(-c2ccccc2)cc(-c2cccs2)nc1SCC(=O)O | 0.708 µM [falling, full curve, poor fit] | 
23 | COc1ccccc1OCc1nnc(SCC(=O)Nc2ccc(C)cc2)n1C | 10 µM [rising, partial curve, poor fit] | 
24 | COc1ccc2ccc(OCC(=O)N3c4ccccc4NC(=O)CC3C)cc2c1 (stereo not drawn) | 6.51 µM [falling, partial curve, poor fit] | 
25 | Cc1sc2nc(C3CC3)nc(NCCNS(=O)(=O)c3ccccc3)c2c1C | 16.4 µM [falling, single point] | 
26 | COC(=O)c1c(NC(=O)CC2Nc3ccccc3NC2=O)sc(C)c1C (stereo not drawn) | 1.26 µM [falling, full curve, poor fit] | 
27 | CCOC(=O)c1c(NC(=O)CSc2nc3c(c(=O)n(C)c(=O)n3C)n2C(C)C)sc(C)c1C | 0.366 µM [rising, full curve, poor fit] | 
28 | S=C(Nc1ccccc1)c1ccccn1 | 25.9 µM [rising, single point] | 6.31 µM [falling, single point]
29 | O=C(N/N=C/c1cc2c(cc1Br)OCO2)c1ccccn1 | 11.2 µM [falling, partial curve, poor fit] | 
30 | Cc1cc(C)cc(Oc2ccccc2/C=N\O)c1 | 6.51 µM [rising, partial curve] | 
31 | Cc1cc(C)c(NC(=O)C2CCCN2CCOC(=O)c2cccc([N+](=O)[O-])c2)c(C)c1 (stereo not drawn) | 16.4 µM [falling, single point] | 
32 | OC[C@@H]1[C@@H](c2ccccc2)C(c2cccc(Cl)c2)=NN1c1ccccc1 | 29.1 µM [falling, single point] | 
33 | Cc1cc(NC(=O)CC2CCCC2)ccc1Br | 1.58 µM [rising, partial curve, poor fit] | 
34 | Cc1nn(-c2ccccc2)c(C)c1CNC(=O)c1ccc(S(=O)(=O)NCc2ccco2)cc1 | 29.1 µM [rising, single point] | 
35 | COC(=O)c1ccc(C2/C(=C(/O)c3ccc(OC)cc3)C(=O)C(=O)N2Cc2ccco2)cc1 (stereo not drawn) | 8.91 µM [falling, partial curve] | 
36 | CC(=O)N=C1SC2CS(=O)(=O)CC2N1Cc1ccc(C)cc1 (stereo not drawn) | 0.501 µM [rising, full curve, poor fit] | 
37 | Cc1ccc(C(=O)NCN2CCN(c3ccc(F)cc3)CC2)cc1 | 25.9 µM [rising, single point] | 
38 | Cc1cc(NC(=O)CSc2ccc(Cl)cc2)no1 | 10.3 µM [rising, partial curve, poor fit] | 
39 | CCOC(=O)c1cccc(N2C(=O)C3C4C=CC(CC4)C3C2=O)c1 (stereo not drawn) | 3.98 µM [falling, single point] | 
40 | O=C(O)c1ccccc1C(=O)Nc1nc(-c2ccccc2)cs1 | 11.2 µM [falling, partial curve] | 
41 | CCOC(=O)N1CCN(C(=O)C2CCN(C(=O)c3ccc([N+](=O)[O-])cc3)CC2)CC1 | 0.794 µM [rising, full curve, poor fit] | 
42 | C#CCOCCOCCOCCNc1nc(N2CCN(C(=O)CCCCCCCCCCNC(=O)Cn3cc(CCCCCN)nn3)CC2)nc(N2CCN(C(=O)CCCCCCCCCCNC(=O)Cn3cc(CCCCCN)nn3)CC2)n1 | 5.17 µM [rising, partial curve, poor fit] | 

Row | SMILES | AC50 [1] | AC50 [2]
43 | Cc1nc2ccccc2c2c1C(=O)N(C)C2=O | 9.2 µM [falling, partial curve, poor fit] | 
44 | Cc1nccc(-c2ccc(-n3cnc4ccccc43)cc2)n1 | 0.00517 µM [rising, full curve, poor fit] | 
45 | C#CCOCCOCCOCCNc1nc(N2CCN(C(=O)CCCCCCCCCCNC(=O)Cn3cc(C[C@@H](C)O)nn3)CC2)nc(N2CCN(C(=O)CCCCCCCCCCNC(=O)[C@@H](CCC(=O)O)n3cc(CCCCCN)nn3)CC2)n1 | 2.59 µM [rising, partial curve, poor fit] | 
46 | Cc1ccccc1-c1nnc(SC(C)C(=O)NC2CCCC2)o1 (stereo not drawn) | 9.2 µM [rising, partial curve] | 
47 | CCC/C=C1/CCCOC(C(=O)NCc2ccc(C)o2)(C(F)(F)F)C1 (stereo not drawn) | 29.1 µM [falling, partial curve, poor fit] | 
48 | FC(F)(F)c1cccc(Cc2noc(CN3CCCC(CN4CCCC4)C3)n2)c1 (stereo not drawn) | 7.08 µM [falling, partial curve, poor fit] | 
49 | Cc1cccc(Nc2nc(-c3ccccc3)cs2)n1 | 0.282 µM [falling, full curve, poor fit] | 
50 | CN(C(=O)COC(=O)CNC(=O)CNC(=O)c1ccc(Cl)cc1Cl)c1ccccc1 | 12.6 µM [rising, partial curve, poor fit] | 
51 | COc1ccc2c(=O)cc(-c3ccccc3F)oc2c1 | 1.41 µM [falling, full curve, poor fit] | 
52 | COc1ccc(OC)c(NC(=O)C2CC2c2ccccc2)c1 (stereo not drawn) | 15.8 µM [rising, single point] | 
53 | COc1cccc(CNC(=O)CCC2CCCN(C(=O)c3cc4ccccc4o3)C2)c1 (stereo not drawn) | 35.5 µM [falling, single point] | 
54 | O=C(c1cc2cc([N+](=O)[O-])ccc2s1)N1CCCCC1 | 3.16 µM [rising, single point] | 
55 | O=C(Cn1c(=O)oc2cc(S(=O)(=O)NCc3ccccc3)ccc21)N(CCO)Cc1ccccc1 | 35.5 µM [falling, single point] | 
56 | Cc1cc2c(=O)n(CC(=O)N3CCN(c4ccccc4)CC3)cnc2s1 | 0.731 µM [falling, partial curve, poor fit] | 
57 | C[N+]1(CC(=O)OC2CCCCCCCCCCC2)CCCC1 | 0.1 µM [falling, full curve, poor fit] | 
58 | O=C(Nn1c(SCc2ccc([N+](=O)[O-])cc2)nc2ccccc2c1=O)c1ccc(F)cc1 | 9.2 µM [falling, partial curve, poor fit] | 
59 | C=C(C)C(O)COc1c2occc2c(OC)c2ccc(=O)oc12 (stereo not drawn) | 0.092 µM [rising, full curve, poor fit] | 
60 | C/C(=N\Nc1nc(-c2ccccc2)cs1)c1cccs1 | 0.058 µM [falling, full curve] | 
61 | O=S1(=O)CCOC[C@H](CC2CCCCC2)N1Cc1cccc(Cl)c1 | 14.1 µM [falling, partial curve] | 
62 | CCC1=C(OC(=O)N(CC)CC)N2C(=O)OC(=NCC3CC3)[C@]2(C)[C@H]2C1=CC[C@H]1C(=O)N(C)C(=O)[C@H]12 | 0.891 µM [rising, full curve] | 
